From US10945685B2, “System and method for normalizing standardized uptake values in brain positron emission tomography (PET) images” (New York University, priority 2018, dated 2021)

Test system: tau
Experiment: AD-NL classification from tau PET: ROC AUC and AD-NL ratio of PBP
Assay type: in vivo, human
Settings: AD vs NL
Protocol: In another embodiment, the average PBP of a particular diseased (or abnormal) group (e.g., an AD group) for a particular ROI may be compared to the PBP of a group of normal control (NL) subjects. For example, a ratio (R) of PBP may be obtained by: R=(average PBP of diseased or abnormal group)/(average PBP of NL group)
Standardized uptake value (SUV) images were obtained by normalizing tissue radioactivity concentration by injected dose and bodyweight. Estimates of tau deposition were determined for THK53151 with the 40-60 min SUV and for AV1451 with for the 80-100 min SUV. Standard SUVR was generated by using cerebellar cortex as reference. To control the variation of SUVR measures in THK5351 and AV1451 PET caused by the off-target binding in reference region, each subject's SUV images were first transferred into standardized SUVP images, using the Peak-alignment method (as described above). In order to compare the regional SUV distribution patterns on group level, the whole brain probability density function (PDFwb) of SUVP were computed for each subject by normalizing the histograms of a subject's SUVP with the total number of intracranial voxels of that subject. Finally, the group average whole brain probability density function (PDFwb) were computed by averaging the individual subjects' PDFwb within 4 compare groups (2 tracers×2 conditions). One important advantage of SUVP over SUVR is that the Peak-alignment method standardized the range of whole brain SUV (marked in FIG. 2) into [−3,3] approximately, regardless of tracer or disease condition, thus allowing universal cutoff for different tracers, while SUVR cutoffs are tracer-dependent (e.g. 1.5 for THK and 1.19 for AV1451). Here, 1.5 is used for SUVP cutoff, representing 1.5 times std from whole brain mode. The positive binding percentage: PBP=(number of positive bring voxels)/(total number of voxels), are computed for both SUVP and SUVR in different brain tissues.
To compare the classification accuracy of AD and NL using mean SUVR and PBP (SUVR and SUVP), the ROC curve was computed and the area under curve (AUC) was computed.
We also computed the diagnostic accuracy in terms of AUC, as specified in Method section. […] The AD-NL ratio obtained using (average PBP of AD group)/(average PBP of NL group).

SMILES	Diagnostic Accuracy (AUC), SUVP PBP (cerebral GM (global))	Diagnostic Accuracy (AUC), SUVR PBP (cerebral GM (global))	Diagnostic Accuracy (AUC), SUVP PBP (temporal lobe)	Diagnostic Accuracy (AUC), SUVR Mean (temporal lobe)	Diagnostic Accuracy (AUC), SUVR PBP (temporal lobe)
[18F]c1ccc(-c2ccc3c(c2)[nH]c2ccncc23)cn1 [AV-1451]	0.85	0.71	0.86	0.75	0.73
CNc1ccc(-c2ccc3cc(OC[C@H](O)CF)ccc3n2)cn1 [THK5351]			0.96	0.89	0.78

The amount applied is not stated for every result.
